# Data from the supplement of paper PMC4604168 (melanoma cell lines).
# Some of the results follow. Single values are uncertain, as repeats are few or missing.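 Imaging used 1,536-well plates; nuclei positive for cleaved PARP by antibody were divided by total DNA-stained nuclei to yield the apoptosis fraction. Doses for screening kept most cells viable, and cell lines differ markedly in resting and induced cleaved-PARP levels.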
# What was measured:
# Test in all cases: cleaved PARP positive nuclei fraction relative to DMSO control; melanoma cells; higher = more apoptosis
# Settings in all cases: library dose: low library concentration; 72 h
# [1] = tested on: WM115
# [2] = tested on: WM1716
# [3] = tested on: WM1745
# [4] = tested on: WM3526
# [5] = tested on: WM3619
# [6] = tested on: WM451Lu
compound,measurement,setting,value
"C[C@]12O[C@H](C[C@]1(O)CO)n1c3ccccc3c3c4c(c5c6ccccc6n2c5c31)CNC4=O [Lestaurtinib] + Nc1nc(F)nc2c1ncn2[C@@H]1O[C@H](CO)[C@@H](O)[C@@H]1O [fludarabine] (first compound 0.004 µM, partner dose 0.2 µM)",cleaved PARP positive nuclei fraction,[1],142%
same,cleaved PARP positive nuclei fraction,[2],94.1%
same,cleaved PARP positive nuclei fraction,[3],105%
same,cleaved PARP positive nuclei fraction,[4],1760%
same,cleaved PARP positive nuclei fraction,[5],99.6%
same,cleaved PARP positive nuclei fraction,[6],96.3%
"Cn1cc(C2=C(c3cn(C4CCN(Cc5ccccn5)CC4)c4ccccc34)C(=O)NC2=O)c2ccccc21 [Enzastaurin] + COc1cc2c(Oc3ccc4[nH]c(C)cc4c3F)ncnc2cc1OCCCN1CCCC1 [cediranib] (first compound 0.8 µM, partner dose 0.4 µM)",cleaved PARP positive nuclei fraction,[1],120%
same,cleaved PARP positive nuclei fraction,[2],85.2%
same,cleaved PARP positive nuclei fraction,[3],113%
same,cleaved PARP positive nuclei fraction,[4],108%
same,cleaved PARP positive nuclei fraction,[5],93.2%
same,cleaved PARP positive nuclei fraction,[6],157%
"C[C@]12O[C@H](C[C@]1(O)CO)n1c3ccccc3c3c4c(c5c6ccccc6n2c5c31)CNC4=O [Lestaurtinib] + C/C(O)=C(\C#N)C(=O)Nc1cc(Br)ccc1Br [LFM-A13] (first compound 0.004 µM, partner dose 2 µM)",cleaved PARP positive nuclei fraction,[1],91.5%
same,cleaved PARP positive nuclei fraction,[2],183%
same,cleaved PARP positive nuclei fraction,[3],101%
same,cleaved PARP positive nuclei fraction,[4],92.6%
same,cleaved PARP positive nuclei fraction,[5],106%
same,cleaved PARP positive nuclei fraction,[6],61.5%
"Clc1ccc(Nc2nnc(Cc3ccncc3)c3ccccc23)cc1 [vatalanib] + Cc1cc(SCc2sc(-c3ccc(C(F)(F)F)c(F)c3)nc2C)ccc1OCC(=O)O [GW0742] (first compound 2 µM, partner dose 2 µM)",cleaved PARP positive nuclei fraction,[1],61.7%
same,cleaved PARP positive nuclei fraction,[2],80.5%
same,cleaved PARP positive nuclei fraction,[3],118%
same,cleaved PARP positive nuclei fraction,[4],149%
same,cleaved PARP positive nuclei fraction,[5],86.7%
same,cleaved PARP positive nuclei fraction,[6],76.7%
"N.N.[Cl][Pt][Cl] [cisplatin] + O=C(Nc1ccccc1)c1cc([N+](=O)[O-])ccc1Cl [GW9662] (first compound 1.6 µM, partner dose 2 µM)",cleaved PARP positive nuclei fraction,[1],46%
same,cleaved PARP positive nuclei fraction,[2],229%
same,cleaved PARP positive nuclei fraction,[3],88.9%
same,cleaved PARP positive nuclei fraction,[4],331%
same,cleaved PARP positive nuclei fraction,[5],100%
same,cleaved PARP positive nuclei fraction,[6],21.1%
"CS(=O)(=O)CCNCc1ccc(-c2ccc3ncnc(Nc4ccc(OCc5cccc(F)c5)c(Cl)c4)c3c2)o1 [lapatinib] + Cc1cc(SCc2sc(-c3ccc(C(F)(F)F)c(F)c3)nc2C)ccc1OCC(=O)O [GW0742] (first compound 0.8 µM, partner dose 2 µM)",cleaved PARP positive nuclei fraction,[1],120%
same,cleaved PARP positive nuclei fraction,[2],254%
same,cleaved PARP positive nuclei fraction,[3],96.8%
same,cleaved PARP positive nuclei fraction,[4],210%
same,cleaved PARP positive nuclei fraction,[5],105%
same,cleaved PARP positive nuclei fraction,[6],96.5%
"Cc1cc(Nc2cc(N3CCN(C)CC3)nc(Sc3ccc(NC(=O)C4CC4)cc3)n2)n[nH]1 [Tozasertib] + N.N.[Cl][Pt][Cl] [cisplatin] (first compound 0.006 µM, partner dose 1.6 µM)",cleaved PARP positive nuclei fraction,[1],97.9%
same,cleaved PARP positive nuclei fraction,[2],86.3%
same,cleaved PARP positive nuclei fraction,[3],188%
same,cleaved PARP positive nuclei fraction,[4],148%
same,cleaved PARP positive nuclei fraction,[5],90%
same,cleaved PARP positive nuclei fraction,[6],96.5%
"CCCCCCCCc1ccc(CCC(N)(CO)CO)cc1 [fingolimod] + C[As](C)SC[C@H](NC(=O)CC[C@H](N)C(=O)O)C(=O)NCC(=O)O [Darinaparsin] (first compound 2 µM, partner dose 0.4 µM)",cleaved PARP positive nuclei fraction,[1],20.1%
same,cleaved PARP positive nuclei fraction,[2],124%
same,cleaved PARP positive nuclei fraction,[3],144%
same,cleaved PARP positive nuclei fraction,[4],96.5%
same,cleaved PARP positive nuclei fraction,[5],170%
same,cleaved PARP positive nuclei fraction,[6],40.5%
"C/C(O)=C(\C#N)C(=O)Nc1cc(Br)ccc1Br + COc1cc(N2CCC(N3CCN(C)CC3)CC2)ccc1Nc1ncc(Cl)c(Nc2ccccc2S(=O)(=O)C(C)C)n1 [NVP-TAE684] (first compound 2 µM, partner dose 0.08 µM)",cleaved PARP positive nuclei fraction,[1],116%
same,cleaved PARP positive nuclei fraction,[2],51.9%
same,cleaved PARP positive nuclei fraction,[3],117%
same,cleaved PARP positive nuclei fraction,[4],79.4%
same,cleaved PARP positive nuclei fraction,[5],93.9%
same,cleaved PARP positive nuclei fraction,[6],28.6%
"Cn1cc(C2=C(c3cn(C4CCN(Cc5ccccn5)CC4)c4ccccc34)C(=O)NC2=O)c2ccccc21 [Enzastaurin] + O=c1cc(-c2cccc3c2Sc2ccccc2S3)oc(N2CCOCC2)c1 [KU55933] (first compound 0.8 µM, partner dose 1 µM)",cleaved PARP positive nuclei fraction,[1],64.3%
same,cleaved PARP positive nuclei fraction,[2],154%
same,cleaved PARP positive nuclei fraction,[3],115%
same,cleaved PARP positive nuclei fraction,[4],33.8%
same,cleaved PARP positive nuclei fraction,[5],179%
same,cleaved PARP positive nuclei fraction,[6],161%
"NC1(c2ccc(-c3nc4ccn5c(=O)[nH]nc5c4cc3-c3ccccc3)cc2)CCC1 + O=C(Oc1ccc([N+](=O)[O-])cc1)N1CCC(C(O)(c2ccc3c(c2)OCO3)c2ccc3c(c2)OCO3)CC1 [JZL184] (first compound 0.4 µM, partner dose 1 µM)",cleaved PARP positive nuclei fraction,[1],111%
same,cleaved PARP positive nuclei fraction,[2],30.8%
same,cleaved PARP positive nuclei fraction,[3],88.8%
same,cleaved PARP positive nuclei fraction,[4],89.7%
same,cleaved PARP positive nuclei fraction,[5],104%
same,cleaved PARP positive nuclei fraction,[6],81.9%
"C[C@@H](N)c1ccc(C(=O)Nc2ccnc3[nH]ccc23)cc1 + C/C(O)=C(\C#N)C(=O)Nc1cc(Br)ccc1Br [LFM-A13] (first compound 0.4 µM, partner dose 2 µM)",cleaved PARP positive nuclei fraction,[1],70.8%
same,cleaved PARP positive nuclei fraction,[2],92.2%
same,cleaved PARP positive nuclei fraction,[3],99.8%
same,cleaved PARP positive nuclei fraction,[4],66.8%
same,cleaved PARP positive nuclei fraction,[5],85.9%
same,cleaved PARP positive nuclei fraction,[6],158%
"O=C(O)[C@@H]1[O][Sb](=[O])([O][Sb]2(=[O])[O][C@H]([C@H](O)CO)[C@H](O)[C@H](C(=O)O)[O]2)[O][C@H]([C@H](O)CO)[C@@H]1O (stereo partly drawn) [stibogluconate] + Cc1cc(SCc2sc(-c3ccc(C(F)(F)F)c(F)c3)nc2C)ccc1OCC(=O)O [GW0742] (first compound 2 µM, partner dose 2 µM)",cleaved PARP positive nuclei fraction,[1],123%
same,cleaved PARP positive nuclei fraction,[2],24.4%
same,cleaved PARP positive nuclei fraction,[3],68.9%
same,cleaved PARP positive nuclei fraction,[4],144%
same,cleaved PARP positive nuclei fraction,[5],83.2%
same,cleaved PARP positive nuclei fraction,[6],22.5%

# In another format: results already given
compound | measurement | setting | value
CS(=O)(=O)CCNCc1ccc(-c2ccc3ncnc(Nc4ccc(OCc5cccc(F)c5)c(Cl)c4)c3c2)o1 [lapatinib] + Cc1cc(SCc2sc(-c3ccc(C(F)(F)F)c(F)c3)nc2C)ccc1OCC(=O)O [GW0742] (first compound 0.8 µM, partner dose 2 µM) | cleaved PARP positive nuclei fraction | [3] | 96.8%
same | cleaved PARP positive nuclei fraction | [4] | 210%
same | cleaved PARP positive nuclei fraction | [5] | 105%
same | cleaved PARP positive nuclei fraction | [6] | 96.5%
